PubChem BioAssay AID1259425 | University of Nebraska Medical Center, 2018

Test: 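Find knockdowns that reproduce the gene expression pattern seen when KSR1 is lost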 (primary screen)
System: HCT116 human colon cancer cells
Reagent: siRNA pool against human genes, 50 nM siRNA
Read-out: 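After 50 nM siRNA pool, branched-DNA assay measures six marker transcripts per well, minus blank, normalised to the geometric mean of two housekeeping transcripts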
Scale: BNIP3L mRNA: higher = more BNIP3L transcript after knockdown; NDRG1 mRNA: higher = more NDRG1 transcript after knockdown; BNIP3 mRNA: higher = more BNIP3 transcript after knockdown; ALDOC mRNA: higher = more ALDOC transcript after knockdown; ACSL5 mRNA: higher = more ACSL5 transcript after knockdown
In all, the deposit lists about 14,000 reagents; below is an unselected part. The record does not give: the time to read-out.

gene knocked down | BNIP3L mRNA, set 1 | NDRG1 mRNA, set 1 | BNIP3 mRNA, set 1 | ALDOC mRNA, set 1 | ACSL5 mRNA, set 1
CENPH (centromere protein H) | 0.087 | 0.424 | 0.118 | 0.0166 | 0.141
PRRX2 (paired related homeobox 2) | 0.184 | 0.377 | 0.489 | -0.000177 | 0.227
TBCB (tubulin folding cofactor B) | 0.0898 | 0.0789 | 0.304 | 0.0229 | 0.126
PYCARD (PYD and CARD domain containing) | 0.074 | 0.0435 | 0.273 | 0.0142 | 0.228
ARID5A (AT-rich interaction domain 5A) | 0.105 | 0.207 | 0.149 | 0.0162 | 0.117
ABCF2 (ATP binding cassette subfamily F member 2) | 0.0941 | 0.134 | 0.262 | 0.0759 | 0.0877
ATXN10 (ataxin 10) | 0.218 | 0.398 | 0.54 | 0.0276 | 0.19
RGN (regucalcin) | 0.148 | 0.296 | 0.413 | 0.0471 | 0.105
ING2 (inhibitor of growth family member 2) | 0.153 | 0.397 | 0.485 | 0.0127 | 0.326
DHX35 (DEAH-box helicase 35) | 0.248 | 0.239 | 0.646 | 0.0828 | 0.391
GAB2 (GRB2 associated binding protein 2) | 0.121 | 0.113 | 0.387 | 0.0168 | 0.224
SANBR (SANT and BTB domain regulator of CSR) | 0.132 | 0.21 | 0.333 | 0.0557 | 0.17
TBX3 (T-box transcription factor 3) | 0.11 | 0.124 | 0.234 | 0.0192 | 0.109
SLC2A4RG (SLC2A4 regulator) | 0.175 | 0.535 | 0.289 | 0.0587 | 0.224
AHCYL1 (adenosylhomocysteinase like 1) | 0.111 | 0.0874 | 0.291 | 0.055 | 0.17
TMTC1 (transmembrane O-mannosyltransferase targeting cadherins 1) | 0.375 | 0.579 | 0.378 | 0.0851 | 0.578
DSCAM (DS cell adhesion molecule) | 0.135 | 0.149 | 0.445 | 0.01 | 0.303
PCLAF (PCNA clamp associated factor) | 0.0836 | 0.116 | 0.342 | 0.0197 | 0.101
SLC7A1 | 0.0701 | 0.0819 | 0.247 | 0.0287 | 0.0409
PFKFB1 (6-phosphofructo-2-kinase/fructose-2,6-biphosphatase 1) | 0.066 | 0.328 | 0.47 | 0.0191 | 0.257
GTPBP3 (GTP binding protein 3, mitochondrial) | 0.187 | 0.36 | 0.276 | 0.0376 | 0.134
PCDHGC5 (protocadherin gamma subfamily C, 5) | 0.155 | 0.322 | 0.21 | 0.0381 | 0.335
PTGS1 (prostaglandin-endoperoxide synthase 1) | 0.0596 | 0.0957 | 0.263 | 0.036 | 0.246
SUB1 (SUB1 regulator of transcription) | 0.151 | 0.121 | 0.401 | 0.0285 | 0.115
PPP6R2 (protein phosphatase 6 regulatory subunit 2) | 0.125 | 0.175 | 0.309 | 0.04 | 0.116
GALNT1 (polypeptide N-acetylgalactosaminyltransferase 1) | 0.108 | 0.205 | 0.345 | 0.0164 | 0.145
OSBPL3 (oxysterol binding protein like 3) | 0.0903 | 0.169 | 0.334 | 0.0241 | 0.222
TCF7L2 (transcription factor 7 like 2) | 0.106 | 0.116 | 0.25 | 0.00734 | 0.15
PRR16 (proline rich 16) | 0.118 | 0.448 | 0.326 | 0.0286 | 0.382
ABHD10 (abhydrolase domain containing 10, depalmitoylase) | 0.0832 | 0.0508 | 0.228 | 0.0255 | 0.0979
DYSF (dysferlin) | 0.0872 | 0.174 | 0.471 | 0.0192 | 0.036
CTNNA2 (catenin alpha 2) | 0.12 | 0.207 | 0.326 | 0.0308 | 0.132
HK1 (hexokinase 1) | 0.139 | 0.0937 | 0.329 | 0.00378 | 0.32
SMARCA5 (SNF2 related chromatin remodeling ATPase 5) | 0.108 | 0.294 | 0.149 | 0.0288 | 0.148
PITPNM2 (phosphatidylinositol transfer protein membrane associated 2) | 0.105 | 0.272 | 0.338 | 0.0143 | 0.394
TAS2R3 (taste 2 receptor member 3) | 0.166 | 0.177 | 0.496 | 0.0627 | 0.281
N4BP3 (NEDD4 binding protein 3) | 0.491 | 1.31 | 0.621 | 0.0483 | 0.292
PTGES (prostaglandin E synthase) | 0.115 | 0.294 | 0.337 | 0.0426 | 0.137
EMP1 (epithelial membrane protein 1) | 0.0882 | 0.113 | 0.339 | 0.053 | 0.185
STAMBPL1 (STAM binding protein like 1) | 0.049 | 0.267 | 0.25 | 0.0197 | 0.0904
CSAD (cysteine sulfinic acid decarboxylase) | 0.15 | 0.235 | 0.227 | 0.0547 | 0.182
TWF1 (twinfilin actin binding protein 1) | 0.108 | 0.208 | 0.472 | 0.00541 | 0.211
TPM4 (tropomyosin 4) | 0.0715 | 0.0663 | 0.28 | 0.0126 | 0.111
SNRPC (small nuclear ribonucleoprotein polypeptide C) | 0.0801 | 2.78 | 0.237 | 0.0369 | 0.172
MTHFD2L | 0.15 | 0.126 | 0.327 | 0.0243 | 0.136
ANGPTL1 (angiopoietin like 1) | 0.06 | 0.163 | 0.287 | 0.0346 | 0.102
ERVW-1 (endogenous retrovirus group W member 1, envelope) | 0.138 | 0.197 | 0.274 | 0.0359 | 0.174
RAB5C (RAB5C, member RAS oncogene family) | 0.074 | 0.186 | 0.231 | 0.0325 | 0.129
CLCA2 (chloride channel accessory 2) | 0.0842 | 0.144 | 0.224 | 0.0205 | 0.12
SDC1 (syndecan 1) | 0.398 | 0.16 | 0.299 | 0.0778 | 0.165
